# From PubChem BioAssay AID1439 (NMMLSC, 2008)
# Amino acid sequences for entries named in this document (tags omitted).
# UniProt P09471, whole entry, looked up: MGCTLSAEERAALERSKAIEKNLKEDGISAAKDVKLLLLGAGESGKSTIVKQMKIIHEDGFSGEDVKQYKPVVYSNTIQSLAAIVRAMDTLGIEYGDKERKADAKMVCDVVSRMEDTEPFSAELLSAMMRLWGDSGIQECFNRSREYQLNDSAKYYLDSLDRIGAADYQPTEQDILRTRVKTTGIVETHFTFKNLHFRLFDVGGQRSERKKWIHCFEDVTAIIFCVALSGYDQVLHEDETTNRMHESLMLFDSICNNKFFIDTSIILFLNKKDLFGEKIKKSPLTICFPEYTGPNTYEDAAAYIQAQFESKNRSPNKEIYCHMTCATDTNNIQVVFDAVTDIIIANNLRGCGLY
# In all, about 220,000 compounds went through this assay and about 770 (0.35%) were called active. Inconclusive results, whose numbers are uncertain, are shown with a selection of clear calls. No stated cut-off is given here; in the data, active means binding response below about 49% or above about 150%; inconclusive means no clear call, values can overlap the other calls; inactive means in between.
# Biological target: Guanine nucleotide-binding protein G(o) subunit alpha (Homo sapiens) (UniProt P09471)
# Assay: RGS7-Galphao binding modulators, primary screen, biochemical, multiplexed bead flow cytometry (AID 1439);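 further: fluorescent Galphao held in activated GDP-AlF4 state binding bead-coupled RGS7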
# Settings: at 10 µM, actives lie on both sides
row,Structure (SMILES),binding response (% of control)
1,CCc1nc(SCC(=O)Nc2ccc(N(C)C)cc2)c2ccccc2n1,inconclusive: 86.2%
2,O=C(CSc1ncn[nH]1)Nc1nc(-c2cccc([N+](=O)[O-])c2)cs1,inconclusive: 89.9%
3,CCOc1ccc(CC(=O)N/N=C/c2cccnc2)cc1,inconclusive: 126%
4,Cc1c(C(=O)NCCSCc2cccc(C(F)(F)F)c2)cnn1-c1ccc(F)cc1,inconclusive: 82.3%
5,COc1ccc2nc(SCC(=O)Nc3nccs3)[nH]c2c1,inactive: 104%
6,COc1ccc(C(=O)[C@H]2[C@H]3C(=O)N(c4ccc(OC(C)=O)cc4)C(=O)[C@H]3C3C=CC=NN32)cc1 (some centres not stated),inconclusive: 124%
7,CC(=O)Nc1ccc(S(=O)(=O)N2CCCC2C(=O)Nc2ccc3c(c2)OCCO3)cc1 (configuration not stated),inactive: 97.9%
8,Cc1cccc(NC(=S)NC2CC3C=CC2C3)c1 (configuration not stated),inconclusive: 122%
9,Cc1cc(C)n(C(N)=NC(=O)c2ccc([N+](=O)[O-])cc2)n1,inconclusive: 280%
10,O=C(O)c1ccc(S(=O)(=O)Nc2cccc(CP(=O)(c3ccccc3)c3ccccc3)c2)cc1,inconclusive: 105%
11,Cc1ccccc1NC1=NCC(c2ccc([N+](=O)[O-])cc2)S1 (configuration not stated),inactive: 93.9%
12,CC(NC(=O)c1ccccc1NC(=O)c1ccncc1)c1ccccc1 (configuration not stated),inconclusive: 95.5%
13,CCOc1cc(/C=N\Nc2nc(-c3ccc(C)cc3)c(NC(C)=O)s2)ccc1O,inconclusive: 89.1%
14,COc1cc(C(=O)N2CCN(S(=O)(=O)c3cccs3)CC2)cc(OC)c1C,inconclusive: 84.1%
15,O=C(c1ccco1)N1CCN(C(c2ccc(F)cc2)c2nnnn2Cc2cccs2)CC1 (configuration not stated),inactive: 101%
16,Cc1ccc(NC(=S)NCc2ccco2)c(C)c1,inconclusive: 97.5%
17,O=C(/C=C/c1ccco1)Nc1ccc(Cl)c(S(=O)(=O)N2CCOCC2)c1,inconclusive: 493%
18,CCC(=O)N1c2ccccc2NC2=C(C(=O)CC(c3ccco3)C2)C1c1ccco1 (configuration not stated),inactive: 84.5%
19,O=[N+]([O-])c1ccc(OCCN2CCCCCC2)cc1,inactive: 99%

row,Structure (SMILES),binding response (% of control)
1,CCOC(=O)c1c(CC(C)C)csc1/N=C/C1C(=O)CC(C)(C)CC1=O,inconclusive: 111%
2,CC(C)CCNC(=O)CSc1nc2ccccc2s1,inconclusive: 91.9%
3,CCCNC(=O)c1c(Cl)cnn1-c1ccc(C)cc1,inactive: 96.6%
4,CC(c1ccco1)N(C(=O)c1ccc(F)cc1)c1ccccn1 (configuration not stated),inactive: 100%
5,CCOC(=O)c1c(NC(=O)c2c(C(=O)O)cccc2[N+](=O)[O-])sc(C)c1C,inactive: 89.9%
6,O=C(Nc1nnc(SCc2ccc(F)cc2)s1)c1ccc2c(c1)C(=O)N(c1ccccc1Cl)C2=O,inactive: 102%
7,CCOC(=O)c1nn(-c2ccc(Cl)cc2Cl)c(=N)c(C#N)c1C,inconclusive: 89.5%
8,Cc1ccc(C(=O)NCc2cccnc2)cc1S(=O)(=O)Nc1ccccc1,inactive: 94.9%
9,O=C1N(CN2CCC3(CC2)OCCO3)c2ccccc2C12OCCCO2,inactive: 100%
10,O=C(CN1CCN(S(=O)(=O)c2ccccc2[N+](=O)[O-])CC1)Nc1ccc(N2CCOCC2)cc1,inconclusive: 56.2%
11,N#Cc1nc(-c2ccc(Cl)cc2)oc1NCC1CCCO1 (configuration not stated),inconclusive: 98.8%
12,Cc1cc(SCC(=O)Nc2cccc(S(=O)(=O)NC3=NCCCCC3)c2)nc2ccccc12,inconclusive: 135%
13,O=c1[nH]c(=S)[nH]c2c1C(c1cc([N+](=O)[O-])c(N3CCOCC3)cc1N1CCOCC1)O2 (configuration not stated),inconclusive: 112%
14,S=c1[nH]nc(-c2cc(-c3ccccc3)n[nH]2)n1/N=C/c1c2ccccc2cc2ccccc12,inconclusive: 115%
15,Fc1cccc(COc2ccccc2C(=S)N2CCCC2)c1,inactive: 100%
16,O=C1C2C3C=CC(C3)C2C(=O)N1c1cccnc1 (configuration not stated),inactive: 97.1%
17,Cn1cc(Br)c(NS(=O)(=O)c2ccc(Cl)s2)n1,inconclusive: 105%
18,COc1ccc(-c2nc(-c3cccnc3)no2)cc1OC,inconclusive: 136%
19,Cc1ccc(S(=O)(=O)N2CCOC2CNC(=O)C(=O)NCCc2ccc(S(N)(=O)=O)cc2)cc1 (configuration not stated),inconclusive: 35.7%

row,Structure (SMILES),binding response (% of control)
1,O=C(CCNC(=O)c1ccccc1Cl)Nc1cc(S(=O)(=O)N2CCOCC2)ccc1N1CCCC1,inconclusive: 94.1%
2,COc1ccccc1NC(=O)C1=C(C)NC(=O)NC1c1ccccc1F (configuration not stated),inactive: 104%
3,CCOC(=O)CC1Sc2ccccc2NC1=S (configuration not stated),inconclusive: 103%
4,COC(=O)c1ccc(OS(=O)(=O)N(C)C)cc1,inconclusive: 92.2%
5,CCC(=O)Nc1ccc(N2CCN(S(C)(=O)=O)CC2)cc1,inactive: 85.3%
6,C=CCN(CC=C)CCOc1cccc(Oc2ccccc2)c1,inconclusive: 96%
7,COc1ccc(CCN2C(=O)CSC2=Nc2ccc(C)cc2C)cc1OC,inconclusive: 103%
8,COc1ccc(C(=O)NCC(=O)OCC(=O)Nc2sccc2C#N)cc1OC,inconclusive: 71.8%
9,CCN(CC)c1ccc(/C=N\N2CCN(Cc3ccc(C)cc3)CC2)cc1,inactive: 106%
10,c1ccc2c3c([nH]c2c1)-c1[nH]ncc1CC3,inactive: 96.2%
11,COc1ccccc1N(CCN1C(=O)c2cccc3cccc(c23)C1=O)C(=O)c1ccncc1,inactive: 78.8%
12,N#C/C(=C\c1ccco1)C(=O)Nc1cccc2ncccc12,inactive: 101%
13,COC(=O)c1ccccc1NC(=O)COC(=O)C1CCCCC1,inconclusive: 107%
14,CNC(=O)NC(=O)Cn1nc2n(c1=O)-c1ccccc1SC2,inconclusive: 142%
15,Cc1cc(Oc2ccc([N+](=O)[O-])cc2)nc(N2CCOCC2)n1,inconclusive: 128%
16,COc1cc(-c2noc(C)n2)cc(OC)c1OC,inconclusive: 64.8%
17,COc1ccc(NC(=O)CSc2ncnc3c2cnn3CCc2ccccc2)cc1,active: 0.35%
18,CN(C)S(=O)(=O)c1cccc(-c2csc(N/N=C/c3ccco3)n2)c1,inconclusive: 106%
19,O=C(c1ccc(F)cc1)n1c(=S)nc2ccccn21,inconclusive: 103%

# In another format: entries from further up
row	Structure (SMILES)	binding response (% of control)
2	COc1ccccc1NC(=O)C1=C(C)NC(=O)NC1c1ccccc1F (configuration not stated)	inactive: 104%
3	CCOC(=O)CC1Sc2ccccc2NC1=S (configuration not stated)	inconclusive: 103%
4	COC(=O)c1ccc(OS(=O)(=O)N(C)C)cc1	inconclusive: 92.2%
5	CCC(=O)Nc1ccc(N2CCN(S(C)(=O)=O)CC2)cc1	inactive: 85.3%
6	C=CCN(CC=C)CCOc1cccc(Oc2ccccc2)c1	inconclusive: 96%
7	COc1ccc(CCN2C(=O)CSC2=Nc2ccc(C)cc2C)cc1OC	inconclusive: 103%
8	COc1ccc(C(=O)NCC(=O)OCC(=O)Nc2sccc2C#N)cc1OC	inconclusive: 71.8%
9	CCN(CC)c1ccc(/C=N\N2CCN(Cc3ccc(C)cc3)CC2)cc1	inactive: 106%
10	c1ccc2c3c([nH]c2c1)-c1[nH]ncc1CC3	inactive: 96.2%
11	COc1ccccc1N(CCN1C(=O)c2cccc3cccc(c23)C1=O)C(=O)c1ccncc1	inactive: 78.8%
